Test results as given in US10731143B2, “Methods and compositions for stabilizing trans-splicing intein modified proteases” (AGRIVIDA, INC., priority 2014, dated 2020).
Some of these results come from one statement about several compounds together.

Assay: Storage stability of iProtease and Savinase in 60% Detergent-1 with 1M KCl under accelerated ageing
Type: physicochemical
Conditions: 8 weeks at 37° C., normalized to t=0

B1: Savinase: extracellular alkaline protease from Bacillus lentus (Uniprot P29600), SEQ ID NO: 6; Novozymes stock, intein unmodified reference enzyme (protein, listed as Bacillus lentus)
chain: MKKPLGKIVASTALLISVAFSSSIASAAEEAKEKYLIGFNEQEAVSEFVEQVEANDEVAILSEEEEVEIELLHEFETIPVLSVELSPEDVDALELDPAISYIEEDAEVTTMAQSVPWGISRVQAPAAHNRGLTGSGVKVAVLDTGISTHPDLNIRGGASFVPGEPSTQDGNGHGTHVAGTIAALNNSIGVLGVAPSAELYAVKVLGASGSGSVSSIAQGLEWAGNNGMHVANLSLGSPSPSATLEQAVNSATSRGVLVVAASGNSGAGSISYPARYANAMAVGATDQNNNRASFSQYGAGLDIVAPGVNVQSTYPGSTYASLNGTSMATPHVAGAAALVKQKNPSWSNVQIRNHLKNTATSLGSTNLYGSGLVNAEAATR
modifications: (1)..(380) Savinase P29600
residual activity retained: 75-80%
